From publication PMC11169341

Chains of the proteins cited; added tags and fusions are not shown. Chains listed by the source or under a name are the forms on record and can include a tag or linker. Residues count along the entry.
UniProt P02769, 25-607: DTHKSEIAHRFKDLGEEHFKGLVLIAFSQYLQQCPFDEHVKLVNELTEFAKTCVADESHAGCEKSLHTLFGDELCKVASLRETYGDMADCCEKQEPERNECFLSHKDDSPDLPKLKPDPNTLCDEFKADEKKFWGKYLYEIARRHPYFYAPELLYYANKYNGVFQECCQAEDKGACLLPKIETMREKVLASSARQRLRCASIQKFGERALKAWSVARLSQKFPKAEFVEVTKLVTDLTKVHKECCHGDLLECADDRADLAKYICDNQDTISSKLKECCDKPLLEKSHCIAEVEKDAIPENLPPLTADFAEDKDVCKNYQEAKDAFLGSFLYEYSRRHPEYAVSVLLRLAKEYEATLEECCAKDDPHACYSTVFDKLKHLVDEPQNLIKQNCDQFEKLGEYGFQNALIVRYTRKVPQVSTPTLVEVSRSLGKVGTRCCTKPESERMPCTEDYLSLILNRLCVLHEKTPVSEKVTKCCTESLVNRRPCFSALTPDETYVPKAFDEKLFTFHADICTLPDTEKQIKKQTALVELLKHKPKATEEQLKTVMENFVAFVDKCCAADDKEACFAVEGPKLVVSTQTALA
recombinant human B7-H3 His-tag (R&D 1949-B3-050) (Homo sapiens), one chain, as listed by the source: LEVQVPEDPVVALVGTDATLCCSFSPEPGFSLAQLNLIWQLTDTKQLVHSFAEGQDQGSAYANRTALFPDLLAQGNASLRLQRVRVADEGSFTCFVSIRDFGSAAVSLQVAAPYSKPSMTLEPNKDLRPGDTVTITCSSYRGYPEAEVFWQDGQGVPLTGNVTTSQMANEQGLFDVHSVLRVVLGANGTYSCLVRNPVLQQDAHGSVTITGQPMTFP

Columns and labels:
[1] = tested on: recombinant human B7-H3 His-tag (R&D 1949-B3-050) (Homo sapiens); test: western blot (aptamer blot); conditions: SDS-denatured B7H3, biotin aptamer, only 03 detected it; ABB: AWB (composition not given) + 0.1 mg/ml yeast tRNA, 0.1 mg/ml salmon sperm DNA, 5% FBS, 1 mg/ml BSA; 60 min; 0-500 nM aptamer; flow binding assay on ice; commercial protein; protein details: C-terminal His; label: FITC or biotin; single-stranded DNA
[2] = molecular target: BSA (UniProt P02769); test: dot blot; conditions: 5% BSA spotted, 100 nM aptamer, same for all five aptamers; ABB: AWB (composition not given) + 0.1 mg/ml yeast tRNA, 0.1 mg/ml salmon sperm DNA, 5% FBS, 1 mg/ml BSA; 60 min; 0-500 nM aptamer; flow binding assay on ice; commercial protein; label: FITC or biotin; single-stranded DNA

| Sequence | binding result [1] | binding result [2] |
| --- | --- | --- |
| TAGGGAAGAGAAGGACATATGATACAGCACGGTATGACGAGTCCATTGTGTGTGCAGCTCGCTAATTGACTAGTACATGACCACTT [VRF-HS_B7H3-01] | no binding | – |
| TAGGGAAGAGAAGGACATATGATATAAGTGACACATCAATCTCATGCGGATGAACCAGTGCGTTTGACTAGTACATGACCACTT [VRF-HS_B7H3-03] | – | no binding |
| TAGGGAAGAGAAGGACATATGATCGCCCCTCTTTTCGATTTCAAGCTCCTAACCCACACCTCTTTGACTAGTACATGACCACTT [VRF-HS_B7H3-02] | no binding | – |
| TAGGGAAGAGAAGGACATATGATTGAGAAGTCACGCCACTTACCTGCGCTCAAAACCTCAGAATTGACTAGTACATGACCACTT [VRF-HS_B7H3-05] | no binding | – |
| TAGGGAAGAGAAGGACATATGATTGCCCCTGACACTTACACGCCACTATCAAGGCACACGCCATTGACTAGTACATGACCACTT [VRF-HS_B7H3-04] | no binding | – |

Negatives hold for the conditions tested.
